From patent US8008077B2, “Photochemical internalization for delivery of molecules into the cytosol” (priority 2000, dated 2011)

System: THX cells
Assay: Intracellular localisation of FITC-dextran after photochemical treatment, fluorescence microscopy
Type: cell-based, human
Details: 20 μg/ml AlPcS2a

FITC-dextran
intracellular localisation, illuminated cells (4 min light before 3 h 5 mg/ml FITC-dextran): the cytosol
intracellular localisation, non-illuminated cells (no light, 3 h 5 mg/ml FITC-dextran): endocytic vesicles
